These are yes or no findings as the source states them, for the method shown. Binding seen in cells or lysates may run through a third protein. Some binding calls cover weakened binding; strength is not graded here. Where a sequence is shown, tags or fusion partners need not be part of it.
Key:
ETS1-1 (1-134 aa) = target: T1, ETS1-1 (1-134 aa) (UniProt P14921); experiment: co-IP; Flag-tagged ETS1 truncations transfected in 786-O cells, co-IP with Flag-tagged antibodies, western blot
T1 sequence: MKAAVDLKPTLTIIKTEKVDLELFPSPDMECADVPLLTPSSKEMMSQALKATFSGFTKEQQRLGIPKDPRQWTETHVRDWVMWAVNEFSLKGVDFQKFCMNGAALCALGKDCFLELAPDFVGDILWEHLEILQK

[1] = target: T2, ETS1 recombinant (GST fusion protein) (UniProt P14921); experiment: pull-down; GST fusion protein immobilised on glutathione-sepharose beads, incubated with cell lysate (RIPA) at 4 °C overnight, 6 washes; only the target purified
T2 sequence: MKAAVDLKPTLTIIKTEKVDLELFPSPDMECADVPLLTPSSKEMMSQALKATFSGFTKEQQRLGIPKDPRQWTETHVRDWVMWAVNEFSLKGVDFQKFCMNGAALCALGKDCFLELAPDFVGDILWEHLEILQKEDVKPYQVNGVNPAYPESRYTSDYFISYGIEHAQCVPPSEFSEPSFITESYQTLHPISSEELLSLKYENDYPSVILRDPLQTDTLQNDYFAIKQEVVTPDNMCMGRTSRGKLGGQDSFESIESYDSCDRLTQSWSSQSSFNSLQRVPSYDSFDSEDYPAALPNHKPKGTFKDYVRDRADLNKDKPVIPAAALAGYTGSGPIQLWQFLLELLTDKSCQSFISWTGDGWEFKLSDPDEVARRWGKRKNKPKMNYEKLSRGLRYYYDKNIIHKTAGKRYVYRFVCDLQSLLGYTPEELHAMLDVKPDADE

[2] = target: T3, ETS1 (human (endogenous in 786-O and ACHN)) (UniProt P14921); experiment: co-IP; endogenous proteins in RIPA lysate of 786-O and ACHN cells, specific antibodies and magnetic beads, 4 °C overnight, 6 washes, western blot; cells also after HDAC8 sgRNA/shRNA, 10 µM PCI-34051, HDAC8 WT or S39D overexpression, NEK1 siRNA, NEK1 plasmids or 10 µM BSc5367
T3 sequence: T2 sequence

[3] = target: T3, ETS1 (human (endogenous in 786-O and ACHN)); experiment: proximity ligation; proximity ligation assay in 786-O cells with antibodies against ETS1 and HDAC8, immunofluorescence

Measured: binding

B1: histone deacetylase 8 (HDAC8) (enzyme, UniProt Q9BY41 1-377)
chain: MEEPEEPADSGQSLVPVYIYSPEYVSMCDSLAKIPKRASMVHSLIEAYALHKQMRIVKPKVASMEEMATFHTDAYLQHLQKVSQEGDDDHPDSIEYGLGYDCPATEGIFDYAAAIGGATITAAQCLIDGMCKVAINWSGGWHHAKKDEASGFCYLNDAVLGILRLRRKFERILYVDLDLHHGDGVEDAFSFTSKVMTVSLHKFSPGFFPGTGDVSDVGLGKGRYYSVNVPIQDGIQDEKYYQICESVLKEVYQAFNPKAVVLQLGADTIAGDPMCSFNMTPVGIGKCLKYILQWQLATLILGGGGYNLANTARCWTYLTGVILGKTLSSEIPDHEFFTAYGPDYVLEITPSCRPDRNEPHRIQQILNYIKGNLKHVV
binds: all assays above
